Assay results as given in paper PMC10126419, “pyHeart4Fish: Chamber-specific heart phenotype quantification of zebrafish in high-content screens” (Frontiers in Cell and Developmental Biology, 2023).
Counter-ions that a name gives are not always drawn.

Assays:
[1] = test system: Tg(myl7:eGFP)^twu34/+ zebrafish embryos; experiment: Chamber-specific quantitative heart phenotyping with pyHeart4Fish; conditions: 20 µM, vs DMSO controls;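 also: embryos exposed 24 h from 24 hpf in 0.2% DMSO egg water, tricaine-anaesthetised, heartbeat videos imaged at 470 nm and hearts analysed chamber by chamber from pixel-intensity beat curves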
[2] = test system: zebrafish embryos; experiment: Toxicity score (ToxScore) at increasing compound concentrations; conditions: 5–80 µM

CN(C)CCN(Cc1cccs1)c1ccccn1 [Methapyrilene HCl, methapyrilene HCl]
Effect on heart function / morphology: contractility, conduction, arrhythmia, HS, EF [1]: a slower HR in the ventricle than in the atrium
ToxScore, highest over tested concentrations [2]: ≤ 2.6
